doi:10.1101/2025.07.10.664210

Tests used:
Assay in all cases: BLI
[1] = target: BRCA1 DBD1 N417S (human) (UniProt P38398); details: order of magnitude below WT, value not in material; residues 330-554
[2] = target: BRCA1 DBD1 T374I (human) (UniProt P38398); details: order of magnitude below WT, value not in material; residues 330-554
[3] = target: BRCA1 DBD1 R496H (human) (UniProt P38398); details: between ssDNA and G4, value not in material; residues 330-554
[4] = target: BRCA1 DBD2 M1008I (human) (UniProt P38398); details: 2-3 orders below WT, value not in material; residues 894-1057
[5] = target: BRCA1 DBD2 S1027N (human) (UniProt P38398); details: three orders below WT, value not in material; residues 894-1057
[6] = target: BRCA1 DBD2 N909I (human) (UniProt P38398); details: 2-3 orders below WT, value not in material; residues 894-1057
[7] = target: BRCA1 DBD2 R1028H (human) (UniProt P38398); details: 2-3 orders below WT, value not in material; residues 894-1057
[8] = target: BRCA1 DBD2 E1038G (human) (UniProt P38398); details: three orders below WT, value not in material; residues 894-1057

## CCATGGCTCCTGAGCTAGCTGCAGTAGCCTAAAGGATGAAACTAGGATCTTATGCTCCAT [Bioss60R (ssDNA)]
[1]
  binding result: binds more weakly

## CCATGGCTCCTGAGCTAGCTGCAGTAGCCTAAAGGATGAAACTAGGATCTTATGCTCCAT (double strand) [Biods60R-Cy3 (blunt dsDNA)]
[2]
  binding result: binds more weakly
[3]
  binding result: binds
[4]
  binding result: binds more weakly
[5]
  binding result: binds more weakly

## TTAGGGTTAGGGTTAGGGTTAGGG [BioG4Telo (G4 DNA)]
[6]
  binding result: binds more weakly
[7]
  binding result: binds more weakly
[8]
  binding result: binds more weakly

For some assays here: A weaker result is weaker than the reference pair of the same experiment. For some assays here: For at least one entry, the source does not settle the construct or the ends of the probe. For some assays here: At least one verdict was read from the data and is not stated in words by the source.
